Laboratory results: patent US6365341B1, “Stabilization of highly sensitive nucleic acid stains in aqueous solutions” (priority 2000, dated 2002)

System: DNA
Assay: Quality of DNA resolution in fresh prestained agarose gels
Settings: 1% agarose, 1xTAPS, 1xGelStar

For `CCCCCCCCCCCC[N+](C)(C)C.[Br-]` [Dodecyltrimethylammonium bromide], the Resolution when fresh (additive 28 mM) was “Poor”.

In the case of `CCCCCCCCCCCCCCCC[N+](C)(C)C.[Br-]` [Hexadecyltrimethylammonium bromide], the Resolution when fresh (additive 2 mM) is reported as “Poor”.

In the case of `[Na+].[OH-]` [Sodium hydroxide (NaOH), Sodium hydroxide], the Resolution when fresh (additive titrated the buffer to pH 8.2) is reported as “Fair”.

`CCCCC[N+](CCCCC)(CCCCC)CCCCC.[OH-]` [TPAOH, Tetrapentylammonium hydroxide] was tested, and the Resolution when fresh (additive 7.3 mM) was “Fair” and the Resolution when fresh (additive 14.6 mM) was “Good”.

`CCCC[N+](CCCC)(CCCC)CCCC.[OH-]` [Tetrabutylammonium hydroxide (TBAOH), Tetrabutylammonium hydroxide] was tested, and the Resolution when fresh (additive 14.6 mM) was “Fair”.

Tween-20 was tested, and the Resolution when fresh (additive 0.1% (v/v)) was “Fair”.
